Data from article doi:10.64898/2025.12.05.692564.
No constants are given. Whether binding was seen depends on the method and setting. Binding seen in cells or lysates may run through a third protein. These calls come from enrichment with a bait or labelling near it, and not all partners need be listed.

The chains behind the UniProt entries cited, without tags or fusion partners.
UniProt Q6P9Z1: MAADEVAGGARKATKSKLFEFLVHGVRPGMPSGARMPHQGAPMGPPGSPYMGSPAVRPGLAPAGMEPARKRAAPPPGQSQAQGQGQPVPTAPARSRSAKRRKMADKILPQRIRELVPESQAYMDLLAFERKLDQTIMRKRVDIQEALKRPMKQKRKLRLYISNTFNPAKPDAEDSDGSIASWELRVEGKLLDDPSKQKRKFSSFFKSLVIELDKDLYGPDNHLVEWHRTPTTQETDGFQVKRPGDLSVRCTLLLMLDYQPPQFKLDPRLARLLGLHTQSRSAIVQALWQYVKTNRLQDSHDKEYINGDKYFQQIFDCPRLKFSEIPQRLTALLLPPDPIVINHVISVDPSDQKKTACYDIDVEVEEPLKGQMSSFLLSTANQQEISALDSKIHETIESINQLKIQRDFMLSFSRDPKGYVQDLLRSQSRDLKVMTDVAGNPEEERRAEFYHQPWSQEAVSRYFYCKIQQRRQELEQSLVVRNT
UniProt Q61466: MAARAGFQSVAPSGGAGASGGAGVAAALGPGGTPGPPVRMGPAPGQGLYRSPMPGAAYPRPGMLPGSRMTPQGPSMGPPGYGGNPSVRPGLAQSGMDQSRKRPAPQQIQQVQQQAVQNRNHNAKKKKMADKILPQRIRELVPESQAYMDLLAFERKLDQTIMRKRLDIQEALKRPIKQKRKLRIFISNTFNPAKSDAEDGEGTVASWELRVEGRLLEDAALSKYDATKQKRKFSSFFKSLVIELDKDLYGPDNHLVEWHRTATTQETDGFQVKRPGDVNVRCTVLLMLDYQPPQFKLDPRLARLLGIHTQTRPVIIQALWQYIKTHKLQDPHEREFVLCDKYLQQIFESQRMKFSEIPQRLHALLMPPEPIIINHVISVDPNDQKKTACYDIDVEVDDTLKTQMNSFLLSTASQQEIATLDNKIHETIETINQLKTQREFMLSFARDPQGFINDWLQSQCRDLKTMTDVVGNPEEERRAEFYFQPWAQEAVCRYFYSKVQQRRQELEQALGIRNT
UniProt Q91ZW3: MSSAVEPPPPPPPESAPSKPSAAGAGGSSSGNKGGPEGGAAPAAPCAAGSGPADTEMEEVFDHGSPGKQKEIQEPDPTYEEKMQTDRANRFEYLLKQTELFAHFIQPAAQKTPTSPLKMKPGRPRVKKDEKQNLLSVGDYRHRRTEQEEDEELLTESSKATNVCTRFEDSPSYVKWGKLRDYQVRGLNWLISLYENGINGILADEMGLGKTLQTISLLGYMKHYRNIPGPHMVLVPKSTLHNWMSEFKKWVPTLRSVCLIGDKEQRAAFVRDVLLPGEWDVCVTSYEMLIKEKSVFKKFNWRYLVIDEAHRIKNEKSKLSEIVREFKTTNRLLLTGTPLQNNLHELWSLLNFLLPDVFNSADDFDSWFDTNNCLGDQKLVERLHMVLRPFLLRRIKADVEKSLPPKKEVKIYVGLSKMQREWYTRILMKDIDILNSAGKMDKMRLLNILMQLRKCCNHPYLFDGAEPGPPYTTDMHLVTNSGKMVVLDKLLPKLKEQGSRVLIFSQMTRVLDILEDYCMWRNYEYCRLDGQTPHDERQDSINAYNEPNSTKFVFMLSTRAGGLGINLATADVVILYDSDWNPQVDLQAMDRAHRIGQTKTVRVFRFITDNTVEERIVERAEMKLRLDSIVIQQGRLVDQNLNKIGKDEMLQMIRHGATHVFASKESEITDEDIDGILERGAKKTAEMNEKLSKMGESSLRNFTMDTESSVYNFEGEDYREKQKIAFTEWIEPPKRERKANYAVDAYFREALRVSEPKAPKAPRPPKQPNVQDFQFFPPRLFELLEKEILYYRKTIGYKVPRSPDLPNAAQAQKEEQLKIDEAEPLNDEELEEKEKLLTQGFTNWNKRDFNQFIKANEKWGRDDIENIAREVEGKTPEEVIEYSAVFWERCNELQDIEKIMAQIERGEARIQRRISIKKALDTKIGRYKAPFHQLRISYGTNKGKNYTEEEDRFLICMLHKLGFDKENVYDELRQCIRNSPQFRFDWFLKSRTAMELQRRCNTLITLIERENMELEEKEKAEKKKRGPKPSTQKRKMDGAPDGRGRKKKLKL
UniProt Q8VDW0: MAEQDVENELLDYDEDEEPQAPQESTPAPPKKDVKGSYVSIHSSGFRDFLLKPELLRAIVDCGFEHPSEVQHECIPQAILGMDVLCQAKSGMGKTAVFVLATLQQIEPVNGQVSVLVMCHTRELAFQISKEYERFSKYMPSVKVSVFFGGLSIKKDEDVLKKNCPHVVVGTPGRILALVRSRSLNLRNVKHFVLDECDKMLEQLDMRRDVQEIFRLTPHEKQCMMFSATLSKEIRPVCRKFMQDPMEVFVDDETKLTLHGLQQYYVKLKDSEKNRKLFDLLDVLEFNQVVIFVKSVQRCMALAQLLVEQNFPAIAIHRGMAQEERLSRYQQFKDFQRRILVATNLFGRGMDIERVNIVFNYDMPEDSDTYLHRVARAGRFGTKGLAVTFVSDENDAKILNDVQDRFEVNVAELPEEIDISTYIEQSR
UniProt Q3UH60: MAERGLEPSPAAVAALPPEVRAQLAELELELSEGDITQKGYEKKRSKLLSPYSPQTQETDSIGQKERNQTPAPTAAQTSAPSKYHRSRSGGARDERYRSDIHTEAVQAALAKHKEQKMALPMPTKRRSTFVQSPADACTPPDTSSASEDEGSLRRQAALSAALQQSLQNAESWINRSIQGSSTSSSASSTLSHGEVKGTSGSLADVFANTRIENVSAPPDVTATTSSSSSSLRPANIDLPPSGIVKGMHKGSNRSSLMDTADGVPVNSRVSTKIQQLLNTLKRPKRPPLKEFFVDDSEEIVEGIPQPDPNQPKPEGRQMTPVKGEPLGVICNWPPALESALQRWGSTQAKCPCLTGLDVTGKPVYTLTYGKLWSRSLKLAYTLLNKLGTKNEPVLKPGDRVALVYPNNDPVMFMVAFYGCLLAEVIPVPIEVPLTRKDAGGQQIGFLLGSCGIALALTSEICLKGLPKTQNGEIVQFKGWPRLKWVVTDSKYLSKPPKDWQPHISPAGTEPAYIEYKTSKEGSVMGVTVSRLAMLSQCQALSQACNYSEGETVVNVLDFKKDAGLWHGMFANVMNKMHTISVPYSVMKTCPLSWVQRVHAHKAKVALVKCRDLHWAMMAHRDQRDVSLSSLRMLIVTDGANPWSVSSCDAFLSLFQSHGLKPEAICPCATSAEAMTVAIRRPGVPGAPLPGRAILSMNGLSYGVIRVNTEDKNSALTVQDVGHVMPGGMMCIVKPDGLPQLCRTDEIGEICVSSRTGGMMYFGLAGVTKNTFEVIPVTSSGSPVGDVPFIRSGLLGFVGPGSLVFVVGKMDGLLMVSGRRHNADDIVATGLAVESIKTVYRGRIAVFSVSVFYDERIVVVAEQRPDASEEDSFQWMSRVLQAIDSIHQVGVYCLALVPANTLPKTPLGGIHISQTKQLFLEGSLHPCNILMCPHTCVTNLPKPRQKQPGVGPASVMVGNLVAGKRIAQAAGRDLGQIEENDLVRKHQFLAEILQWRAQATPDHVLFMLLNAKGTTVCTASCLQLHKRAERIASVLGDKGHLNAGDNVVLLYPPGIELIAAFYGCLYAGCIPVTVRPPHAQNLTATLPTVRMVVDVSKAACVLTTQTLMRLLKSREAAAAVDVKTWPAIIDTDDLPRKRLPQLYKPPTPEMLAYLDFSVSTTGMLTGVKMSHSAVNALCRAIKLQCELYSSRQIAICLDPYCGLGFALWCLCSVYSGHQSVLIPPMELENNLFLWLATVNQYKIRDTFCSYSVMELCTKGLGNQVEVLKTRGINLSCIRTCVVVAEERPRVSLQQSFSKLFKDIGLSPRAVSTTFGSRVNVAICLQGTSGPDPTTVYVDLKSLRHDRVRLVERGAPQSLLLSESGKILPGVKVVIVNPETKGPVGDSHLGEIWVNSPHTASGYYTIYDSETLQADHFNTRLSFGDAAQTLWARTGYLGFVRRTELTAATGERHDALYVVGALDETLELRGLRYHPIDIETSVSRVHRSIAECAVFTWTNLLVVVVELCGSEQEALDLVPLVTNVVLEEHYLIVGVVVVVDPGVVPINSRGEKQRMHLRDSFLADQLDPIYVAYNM

Columns and labels:
SMARCD3-FKBPv-V5 (mouse) = SMARCD3-FKBPv-V5 (mouse) (UniProt Q6P9Z1); assay: affinity purification with mass spectrometry
SMARCD1-FKBPv-V5 (mouse) = SMARCD1-FKBPv-V5 (mouse) (UniProt Q61466); assay: affinity purification with mass spectrometry

| binding (SMARCD3-FKBPv-V5 (mouse)) | binding (SMARCD1-FKBPv-V5 (mouse)) | Substance |
| --- | --- | --- |
| binds | binds | SMARCA5 (from UniProt Q91ZW3 1-1051) |
| binds | binds | DDX39A (from UniProt Q8VDW0 1-427) |
|  | binds | DIP2B (from UniProt Q3UH60 1-1574) |
